Library screen at single concentrations

From ChEMBL document CHEMBL3988442, “University of Dundee, Small-Polar-MMV Screening Library” (2021).

The filed quantity is “Percent Effect” (%).
The controls that fix the scale are not given in the record; negative values are as filed.
The compounds are a random part of those screened.
Two or more numbers in one place are separate tests of the same structure; such repeats can differ widely.

A: 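Phenotypic screen: M. tuberculosis growth, cholesterol and DPPC medium, 4 days; the read-out is not stated. Tested at 50 µM. Direction is inferred from retests: higher values go with more growth inhibition. About 69,000 compounds were tested under these conditions; 0.54% (about 370) showed 50% or more at least once.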
B: 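Whole-cell growth test on Mycobacterium tuberculosis, read after 3 days in glucose-containing 7H9 medium; the read-out is not stated. Tested at 50 µM. Direction is inferred from retests: higher values go with more growth inhibition. Of about 69,000 compounds tested this way, about 760 (1.1%) reached 50% or more in at least one test.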

SMILES | A | B
O=C(NCCc1nccs1)N1CCC(n2cccc2)CC1 | -11.01 | 26.3
Cn1cc(C[C@H]2[C@@H](OCC3CC3)CCN2C(=O)c2ccc[nH]2)cn1 | -33.59 & 2.556 | 7.527
Cc1nnc2n1CCN(CCS(=O)(=O)c1ccccc1)C2 | 2.481 | 19.52
COc1ccc(-c2nnsc2C(=O)N2CCN(C(C)=O)CC2)cc1 | 13.07 | 2.215 & -7.987
CN(C)c1cccc(C2CCCN2S(=O)(=O)c2cn(C)cn2)n1 (stereo not given) | -0.665 | 1.749
COc1cccc(N2CCN(Cc3nccc(OC)c3OC)CC2=O)c1 | 7.426 | -19.57
Cc1ccc(CNS(=O)(=O)CCCC#N)cc1F | 16.01 | 0.247
CCc1ccc(C(COC)NC(=O)c2ccc(C(N)=O)cc2)o1 (stereo not given) | -9.313 | 35.3
O=C(NCCn1ccnc1)c1csc(Br)c1 | -20.22 | 6.053
COc1ccc(F)c(-c2ncccc2NC(=O)C(C)C)c1 | 14.97 | 0.5922
Cc1ccnc(C2CCN(S(=O)(=O)c3cn(C)cn3)CC2)n1 | -13.3 | 9.768
Cc1cc(S(=O)(=O)Nc2cccc(-n3cccc3)c2)sc1C(=O)O | -1.361 | 28.98
COc1ncnc(N)c1CNCC(C)Oc1ccccc1Cl (stereo not given) | -8.743 | 5.922
O=C(O)C(F)(F)F.[H][C@@]12COC[C@]1(COCC(=O)N(C)C)CN(Cc1ccccc1)C2 | 4.873 | 10.09
O=C(NCC1(O)CCSC1)c1ccoc1 (stereo not given) | -2.579 & -6.833 | -5.314
Cn1nc(C#N)c2c1CN(C(=O)c1nc[nH]n1)CCC2 | -11.99 | -18.49
CCc1nnc2n1CCN(Cc1ncc(-c3ccc(Cl)cc3)o1)C2 | 10.23 | -4.391
Cc1nc(C2CCCN2CCCNS(C)(=O)=O)no1 (stereo not given) | -2.176 | -6.05
CCCc1nn(C2CCN(C3CC3)C2=O)c(=O)o1 (stereo not given) | 5.642 | 5.376
Cc1c(C(=O)NCCC(=O)N2CCOCC2)sc2ccc(F)cc12 | -0.8713 | 6.806
Cn1cc(CNC2CCc3ncnn3C2)c(-c2ccncc2)n1 (stereo not given) | 2.881 | -1.559
Cc1nc(N(CCC(N)=O)Cc2ccccc2)c2nc(C)oc2n1 | -7.346 | -46.7
Cc1nc2ccnn2c(C)c1CCC(=O)N1CCN(CCO)CC1 | 0.971 | 33.05
Cc1cccc2c1NC(c1cnc(C3CCC3)s1)NC2=O (stereo not given) | -3.671 | 6.517
O=C(O)C(F)(F)F.[H][C@@]12CCCO[C@]1([H])[C@H](OC)CN2S(=O)(=O)c1cn(C)cn1 | -30.64 | -24.8
CN(Cc1ccc(C#N)cc1)Cc1noc(C(C)(C)C)n1 | -1.164 | -13.35
Cc1cc(NC(=O)CO)nn1-c1ccc(Cl)cc1Cl | -4.642 | 1.614
COc1ccc(S(=O)(=O)NC(=O)c2c(C)noc2C(C)C)cc1C | -3.833 | 11.94
Cc1ncsc1CN1CCn2c(COc3cccnc3)cnc2C1C.O=C(O)C(F)(F)F.O=C(O)C(F)(F)F (stereo not given) | -15.97 | 22.8
N#Cc1cc(F)c(NCCc2ccc(S(N)(=O)=O)cc2)c(F)c1 | -9.135 | -2.154
O=C(Nc1nccs1)N(CCO)Cc1ccsc1 | -1.285 | 16.26
O=C(O)c1ncccc1N1CCCCC1 | -4.447 | 5.985 & -1.673
NC(=O)C(NC(=O)CCc1ccc(Cl)s1)c1ccccc1 (stereo not given) | 5.147 | -10.88 & 7.871
Cc1cc(N)nc(SC2CCN(c3ccccc3F)C2=O)n1 (stereo not given) | -14.89 | -2.717
[H][C@@]12C[C@H](C(=O)NC3CC3)CN(Cc3ccco3)[C@]1([H])CCO2 | 13 | 19.51 & -2.666
CCOCCN1CCN(CC(O)c2ccc(F)cc2)CC1 (stereo not given) | 5.285 | 17.89
CC(C)OCCC1CCCCN1S(=O)(=O)c1cnn(C)c1 (stereo not given) | -5.966 | -5.7 & 5.893
O=C(NCC1(O)CCOCC1)c1ccc(F)cc1 | -3.764 | 10.44
CC(C)(C)NC(=O)C1CSCN1S(=O)(=O)c1ccccc1S(C)(=O)=O (stereo not given) | -22.47 | -13.39
CCC(Nc1nc(C)nc2onc(C)c12)c1nc(C)c(C)s1 (stereo not given) | -6.261 | 12.91 & -11.53
CN(Cc1cccc(-n2cccn2)c1)Cc1cccs1 | 13.67 & 28.62 | 8.374
O=C(NC1CC1)c1cc(Cl)ccc1-n1cnnn1 | 0.6038 | 14.71
CC(NC(=O)N1CCN(c2ncccn2)CC1)c1ccc(C#N)cc1 (stereo not given) | -6.831 | -42.76 & -4.486
COCCN(C)CCN1CC2(CCN(C3CCCNC3)CC2)OC1=O (stereo not given) | -2.275 & -7.857 | 0.8939
CC(C)NC[C@@]1(COc2ccccc2)C[C@@H](O)[C@@H](O)C1.Cl | 25.32 | -4.072 & 3.289
CCOc1ccc(S(=O)(=O)N(CCOC)Cc2ccoc2)cc1F | 7.755 | 21
Cc1ccc(-c2cn3c(n2)CO[C@@H](CNCc2cnn(C)c2)C3)cc1 | -35.03 | -8.013 & -2.233
COCC1CN(C(=O)c2ccccn2)Cc2nccn2C1 (stereo not given) | -18.78 | 7.984
Cc1noc(C)c1CN(C)Cc1csc(-c2ccccc2F)n1 | 22.53 | 5.872 & 30.5
O=C(CC1CC1)N1CCCn2nnc(CNc3ncccn3)c2C1 | 3.415 | -7.531
COCCN1CCC(NC(=O)NCC2(c3ccccc3)CC2)C1 (stereo not given) | 26.49 & 9.725 | -33.44
CC(C)(C)C(O)CN1CCN(C(=O)c2cccc3[nH]ncc23)CC1 (stereo not given) | -9.677 | 4.826
CC(C)N(CC(=O)Nc1cccc(C#N)c1)C1CC1 | -3.444 | 2.584 & -0.1494
Cc1nc(N(C)C)nc(NCCc2c[nH]cn2)c1C | -14.05 | -7.482
N#Cc1cccc(N2CCCC(CO)(CCOc3ccccc3)C2)n1 (stereo not given) | 2.391 | -4.947 & 12.71
Cc1cccc(NC2CCN(C(=O)Nc3cc(F)ccc3F)CC2)n1 | -13.08 | 17.78 & -14
CN(CC(=O)Nc1cnn(-c2ccccc2S(C)(=O)=O)c1)C1CC1 | 1.146 | -9.048 & -3.593
CC(C)C[C@H](N)c1nnc(SCC(=O)Nc2ccc(Br)cc2)o1.Cl | 5.513 | 0.7875
CCc1nnc2n1CCN(Cc1cc(Cl)c3c(c1)OCCO3)C2 | -0.5694 | -19.3
Cc1cc(N2CCOC(c3ccncn3)C2)ncn1 (stereo not given) | 2.298 | -3.573
CCN1CC(CN(C)Cc2nc(-c3ccc(F)cc3F)oc2C)CC1=O (stereo not given) | 6.77 | 9.781
O=C1OCCN1CCOc1nc(-c2ccccc2Cl)no1 | 3.31 | 21.92 & -0.418
CN(C)C(=O)C1CCC2(CCN(C(=O)Nc3ccc(F)cc3)CC2)O1 (stereo not given) | -23.04 | 10.53
CC(=O)N1CCc2nc(-c3ccc(F)cc3)nc(NC(C)C)c2CC1 | -3.455 | -43.81
COc1ccc(F)c(-c2ccnc(N)c2)c1 | 21.83 | 0.05999 & 38.68
COCc1nc(C(=O)N2CCCC(n3ccnc3)C2)cs1 (stereo not given) | -3.66 | 8.812
[H][C@@]12CS(=O)(=O)C[C@]1([H])N(C(=O)c1cnccn1)CCN2C(=O)C1CCC1 | 29.01 | -10.78
Cc1ncnc2c1CCN(C(=O)c1ccncc1)CC2.O=C(O)C(F)(F)F | -9.54 | -12.31 & -7.463
CC(=O)N1CCC(C)(c2cc[nH]n2)CC1 | -0.06658 | -16.54
Cc1nc[nH]c1C(=O)N1CC[C@@H](NC(=O)c2ccccn2)[C@H](O)C1 | -21.74 & -0.7856 | -11.55
O=C(CCn1ccnn1)N1CCCC(n2cncn2)C1 (stereo not given) | -5.413 | -12
Cc1nc(C)n(CC2CCCN2CC(=O)NCCc2ccccc2)n1 (stereo not given) | -5.905 | -4.299 & -0.3116
c1ccc(C2CCCCN2Cc2nc(-c3cnccn3)no2)nc1 (stereo not given) | 7.004 | 22.84
Cc1ccc(-c2cccc(CC3(C(=O)O)CCOCC3)c2)c(C)c1 | -2.594 | 12.66
C[C@@H]1CN(C2CCN(Cc3cnc(-c4cccs4)nc3)CC2)C[C@H](C)O1 | -11.79 | -9.826 & -5.483
Cc1nc(C)c(C(=O)NCCNC(=O)c2ccc(F)cc2F)s1 | -0.9668 | 8.38
CC(C)c1noc(CCCC(=O)N2CCN(Cc3ccsc3)CC2)n1 | -18.6 | -26.76 & -0.04848
O=C(NCCNc1ncccn1)N1CCN(Cc2cccnc2)CC1 | -2.041 | 4.343
CSc1ccccc1C(=O)N(C)C1CCCN(CCc2ccccc2)C1 (stereo not given) | 7.72 | -8.933 & 7.903
COCC1Cn2nnc(-c3cnn(C)c3)c2CN1Cc1ccc(C)o1 (stereo not given) | 3.194 & -4.842 | -1.387
O=C(O)C(F)(F)F.O=C1NC2(CCN(CCO)CC2)CC1c1ccccc1 (stereo not given) | 2.782 | -7.144 & -0.6453
O=C(NC1(c2nccs2)CCCC1)c1cc(C2CC2)[nH]n1 | 1.784 & 5.301 | 6.663 & 5.364
CN(C)C(=O)c1cnc2n1CCN(Cc1cccnc1)C2.O=C(O)C(F)(F)F.O=C(O)C(F)(F)F | -22.7 & 3.571 | -15.15